Measurements: doi:10.1101/2020.01.08.898577
Results are given in words; binding and its absence hold for the method and conditions named. Binding seen in cells or lysates may run through a third protein. Some entries that bind do so weakly or less than the wild type.

The chains behind the UniProt entries cited, without tags or fusion partners.
UniProt Q15910: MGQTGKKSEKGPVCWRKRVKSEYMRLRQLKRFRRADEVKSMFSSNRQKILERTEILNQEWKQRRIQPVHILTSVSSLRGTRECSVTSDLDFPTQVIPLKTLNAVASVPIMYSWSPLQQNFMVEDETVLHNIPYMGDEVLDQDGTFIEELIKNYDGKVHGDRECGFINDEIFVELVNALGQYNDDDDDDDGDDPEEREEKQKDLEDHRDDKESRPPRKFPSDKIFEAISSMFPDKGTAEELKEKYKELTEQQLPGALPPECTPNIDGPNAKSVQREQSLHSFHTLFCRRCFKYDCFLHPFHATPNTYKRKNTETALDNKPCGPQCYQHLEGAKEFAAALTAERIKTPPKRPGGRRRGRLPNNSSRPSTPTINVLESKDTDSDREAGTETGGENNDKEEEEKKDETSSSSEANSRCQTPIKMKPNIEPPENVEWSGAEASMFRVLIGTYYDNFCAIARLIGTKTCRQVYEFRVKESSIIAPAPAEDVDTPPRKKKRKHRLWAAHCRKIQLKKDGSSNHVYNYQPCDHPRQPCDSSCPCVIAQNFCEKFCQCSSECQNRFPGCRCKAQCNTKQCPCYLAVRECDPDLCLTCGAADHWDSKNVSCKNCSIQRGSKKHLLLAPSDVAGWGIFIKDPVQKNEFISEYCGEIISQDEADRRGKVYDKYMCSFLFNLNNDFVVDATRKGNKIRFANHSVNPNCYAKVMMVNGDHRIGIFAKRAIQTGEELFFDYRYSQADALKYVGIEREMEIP
UniProt Q15022: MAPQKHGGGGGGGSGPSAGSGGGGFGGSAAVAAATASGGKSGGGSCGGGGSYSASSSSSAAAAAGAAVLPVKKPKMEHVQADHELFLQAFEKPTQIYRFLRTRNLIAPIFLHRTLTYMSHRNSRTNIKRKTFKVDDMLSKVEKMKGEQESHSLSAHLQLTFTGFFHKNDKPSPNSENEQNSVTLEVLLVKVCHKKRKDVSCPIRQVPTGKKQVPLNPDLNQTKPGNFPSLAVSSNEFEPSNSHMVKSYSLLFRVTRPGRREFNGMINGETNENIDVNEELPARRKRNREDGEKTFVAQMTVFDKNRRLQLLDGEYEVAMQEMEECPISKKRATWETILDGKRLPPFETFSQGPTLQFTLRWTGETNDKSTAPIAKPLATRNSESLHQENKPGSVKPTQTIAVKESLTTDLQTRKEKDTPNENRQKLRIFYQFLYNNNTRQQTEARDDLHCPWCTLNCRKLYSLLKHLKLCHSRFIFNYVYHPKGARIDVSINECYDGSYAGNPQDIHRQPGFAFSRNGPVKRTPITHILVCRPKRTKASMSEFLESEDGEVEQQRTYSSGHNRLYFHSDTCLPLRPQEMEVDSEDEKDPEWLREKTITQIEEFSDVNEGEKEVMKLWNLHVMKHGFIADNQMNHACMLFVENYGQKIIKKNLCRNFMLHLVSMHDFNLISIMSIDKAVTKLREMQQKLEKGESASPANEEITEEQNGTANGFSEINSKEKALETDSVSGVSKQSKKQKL
UniProt A6NHQ4: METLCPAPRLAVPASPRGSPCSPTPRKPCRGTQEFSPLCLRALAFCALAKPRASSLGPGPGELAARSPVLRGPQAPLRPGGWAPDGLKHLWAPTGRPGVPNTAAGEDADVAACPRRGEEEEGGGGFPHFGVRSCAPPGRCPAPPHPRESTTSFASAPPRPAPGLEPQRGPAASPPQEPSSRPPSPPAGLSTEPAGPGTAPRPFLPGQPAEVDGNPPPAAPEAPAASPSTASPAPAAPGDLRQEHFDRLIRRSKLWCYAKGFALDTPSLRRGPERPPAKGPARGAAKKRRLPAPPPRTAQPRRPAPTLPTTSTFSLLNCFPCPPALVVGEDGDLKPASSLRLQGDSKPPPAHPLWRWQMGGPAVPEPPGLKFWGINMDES
UniProt Q9Y483: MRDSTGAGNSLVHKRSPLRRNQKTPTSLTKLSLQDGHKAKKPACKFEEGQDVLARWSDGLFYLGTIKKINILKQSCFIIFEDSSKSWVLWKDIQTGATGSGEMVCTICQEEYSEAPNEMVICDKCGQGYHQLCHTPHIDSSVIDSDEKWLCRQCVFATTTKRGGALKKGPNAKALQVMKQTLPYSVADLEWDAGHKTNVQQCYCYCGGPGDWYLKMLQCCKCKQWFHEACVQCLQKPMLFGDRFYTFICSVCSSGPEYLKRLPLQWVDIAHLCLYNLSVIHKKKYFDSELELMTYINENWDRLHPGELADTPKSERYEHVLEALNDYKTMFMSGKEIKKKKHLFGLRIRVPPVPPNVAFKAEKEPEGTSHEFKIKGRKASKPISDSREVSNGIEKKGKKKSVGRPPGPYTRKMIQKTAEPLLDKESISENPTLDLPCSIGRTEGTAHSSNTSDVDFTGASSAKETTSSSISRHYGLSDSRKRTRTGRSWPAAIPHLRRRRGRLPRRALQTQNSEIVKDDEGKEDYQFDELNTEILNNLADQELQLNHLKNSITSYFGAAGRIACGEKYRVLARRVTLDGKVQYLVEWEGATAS

Tests used:
[1] = molecular target: EZH2 (human (endogenous in MCF7)) (UniProt Q15910); test: co-IP
[2] = molecular target: SUZ12 (human (endogenous in MCF7)) (UniProt Q15022); test: co-IP

| binding [1] | binding [2] | Substance |
| --- | --- | --- |
| binds |  | EPOP (from UniProt A6NHQ4 1-379) |
| binds | binds | PCL2 (from UniProt Q9Y483 1-593) |
| binds |  | PCL3 (from UniProt Q5T6S3 1-580) |
